Data from patent US10265275B2, “Phenolic coatings and methods of making and using same” (Northwestern University, priority 2013, dated 2019).
Some compounds share one wording; it may come from a single statement.

What was measured:
[1] = Effect of salt on coating formation on TiO2, XPS Ti2p signal; settings: for Ti2p Signal Strength (%): 48 h
[2] = Coating deposition from purified polyphenols, silver metallization; settings: purified compounds, polysulfone (FIG. 3)
[3] = Coating ability on a wide range of substrate materials (XPS, ellipsometry, silver deposition); settings: 600 mM NaCl
[4] = Effect of salt on coating formation on SiO2, XPS Si2p signal; settings: 48 h
[5] = Coating ability on TiO2 at pH 3-9, XPS Ti2p signal attenuation
[6] = Coating thickness on TiO2 by ellipsometry; settings: TiO2, 48 h, pH 7
[7] = pH 7, Ca2+ = 600 mM CaCl2, 1 mg/mL
[8] = pH 7, Cu2+ = 100 μM CuCl2 + 600 mM NaCl, 1 mg/mL
[9] = pH 7, Mg2+ = 600 mM MgCl2, 1 mg/mL
[10] = pH 7, Na+ = 600 mM NaCl, 1 mg/mL
[11] = pH 7, Zn2+ = 100 μM ZnCl2 + 600 mM NaCl, 1 mg/mL

Substance: epigallocatechin-3-gallate [EGCG]
- able to coat both TiO2 and SiO2 with at least one of the experimental conditions ([1]; TiO2 and SiO2, salts of Tables 8-9): able to coat both TiO2 and SiO2
- Ti2p Signal Strength (%) [1, 7]: 0.0%
- Ti2p Signal Strength (%) [1, 8]: 0.0%
- Ti2p Signal Strength (%) [1, 9]: 0.0%
- Ti2p Signal Strength (%) [1, 10]: 0.0%
- Ti2p Signal Strength (%) [1, 11]: 13.0%
- coating deposition, qualitative observation after silver metallization [2]: coatings are deposited as expected
- Coating Formed? SiO2 ([3]; substrate SiO2 (silica), each precursor at its own pH): No
- Coating Formed? TiO2 ([3]; substrate TiO2, each precursor at its own pH (TA 7, PG 7, catechol 8, catechin 9, HHQ 6, EGCG 7)): Yes
- Coating Formed? Au ([3]; substrate gold, each precursor at its own pH): Yes
- Coating Formed? Nylon ([3]; substrate nylon 6-12, each precursor at its own pH): Yes
- Coating Formed? PEEK ([3]; substrate poly(ether ether ketone), each precursor at its own pH): Yes
- Coating Formed? PPS ([3]; substrate poly(p-phenylene sulfide), each precursor at its own pH): Yes
- Coating Formed? PC ([3]; substrate polycarbonate, each precursor at its own pH): Yes
- Coating Formed? PS ([3]; substrate polystyrene, each precursor at its own pH): Yes
- Coating Formed? PTFE ([3]; substrate polytetrafluoroethylene, each precursor at its own pH): Yes
- Coating Formed? SS ([3]; substrate stainless steel, each precursor at its own pH): Yes
- Si2p Signal Strength (%) [4, 7]: 99.8%
- Si2p Signal Strength (%) [4, 8]: 107.1%
- Si2p Signal Strength (%) [4, 9]: 20.6%
- Si2p Signal Strength (%) [4, 10]: 108.5%
- Si2p Signal Strength (%) [4, 11]: 104.1%
- capable of forming coatings between pH 3 and 9 ([5]; TiO2, XPS, at least 20% signal reduction): capable of forming coatings
- Ti2p Signal Strength (%) ([5]; pH 3, precursor 0.1 mg/mL): 81.5%
- Ti2p Signal Strength (%) ([5]; pH 3, precursor 1 mg/mL, 24 h, 600 mM NaCl): 70.1%
- Ti2p Signal Strength (%) ([5]; pH 4, precursor 0.1 mg/mL): 87.4%
- Ti2p Signal Strength (%) ([5]; pH 4, precursor 1 mg/mL, 24 h, 600 mM NaCl): 71.5%
- Ti2p Signal Strength (%) ([5]; pH 5, precursor 0.1 mg/mL): 82.5%
- Ti2p Signal Strength (%) ([5]; pH 5, precursor 1 mg/mL, 24 h, 600 mM NaCl): 71.8%
- Ti2p Signal Strength (%) ([5]; pH 6, precursor 0.1 mg/mL): 52.4%
- Ti2p Signal Strength (%) ([5]; pH 6, precursor 1 mg/mL, 24 h, 600 mM NaCl): 67.7%
- Ti2p Signal Strength (%) ([5]; pH 7, precursor 0.1 mg/mL): 8.7%
- Ti2p Signal Strength (%) ([5]; pH 7, precursor 1 mg/mL, 24 h, 600 mM NaCl): 0.3%
- Ti2p Signal Strength (%) ([5]; pH 8, precursor 0.1 mg/mL): 43.8%
- Ti2p Signal Strength (%) ([5]; pH 8, precursor 1 mg/mL, 24 h, 600 mM NaCl): 45.5%
- Ti2p Signal Strength (%) ([5]; pH 9, precursor 0.1 mg/mL): 91.8%
- Ti2p Signal Strength (%) ([5]; pH 9, precursor 1 mg/mL, 24 h, 600 mM NaCl): 83.8%
- Optimal Coating pH ([5]; pH with the greatest signal attenuation in the XPS trials): 7.0
- Coating Thickness (nm) [6]: 34.3 ± 7.2 nm
